# Laboratory results: US20230398228A1, “ERIBULIN-BASED ANTIBODY-DRUG CONJUGATES AND METHODS OF USE” (EISAI R&D MANAGEMENT CO., LTD., priority 2016, published 2023)
# How the values were obtained:
# [1] = DAR analysis by LC-MS (UPLC/ESI-MS, reverse-phase LC-MS); details: maleimido-PEG2-biotin conjugation
# Experimental: ADCs were deglycosylated using PNGase F (New England BioLabs). G7 buffer (10 μL) and PNGase F (2 μL) were added to the mAb (90 μL, 1 mg/mL in DPBS). The reaction was incubated in a Discover microwave (CEM) for 2 cycles: (1) microwave power 10 W, 37° C., 10 min, followed by a 5-min pause; (2) microwave power 2 W, 37° C., 10 min. A portion of the sample was reduced by adding DTT to a final concentration of 20 mM, followed by incubation at 60° C. for 3 min. Samples were then analyzed using a Waters Acquity Ultra Performance Liquid Chromatography (UPLC) and quadrupole time of flight (Q-Tof) Premier mass spectrometer. Samples (0.5-2 μg each) were injected onto a MassPrep™ micro desalting column at 65° C., eluted from the column with a 5 min equilibration in 95% of mobile phase A, a 10 min gradient (5-90% B), and a 10 min re-equilibration in 95% of mobile phase A, at 0.05 mL/min. Mobile phase A was 0.1% formic acid in water. Mobile phase B was 0.1% formic acid in acetonitrile. The Q-Tof mass spectrometer was run in positive ion, V-mode with detection in the range of 500-4000 m/z. The source parameters were as follows: capillary voltage, 2.25 kV (intact antibody)-2.50 kV (reduced antibody); sampling cone voltage, 65.0 V (intact antibody) or 50.0 V (reduced antibody); source temperature, 100° C.; desolvation temperature, 250° C.; desolvation gas flow, 550 L/hr. The protein peak was deconvoluted using the MassLynx® MaxEnt 1 function. Relative intensities of each unconjugated, singly-conjugated, and multiply-conjugated heavy and light chain masses were combined to calculate the overall DAR using the formula:
# 2[[ILC+1+2(ILC+2)+3(ILC+3)+ . . . n(ILC+n)]/ΣILCtot]+2[[IHC+1+2(IHC+2)+3(IHC+3)+ . . . n(IHC+n)]/ΣIHCtot]
# where ILC+1 is mass intensity of light chain conjugated with one cytotoxin, ILC+2 is mass intensity of light chain conjugated with two cytotoxins, etc. IHC are the intensities from the corresponding conjugated heavy chains, and ΣILCtot and ΣIHCtot are the combined intensities of all unconjugated and conjugated light chains and heavy chains, respectively.
# DAR was also analyzed using an LC-MS method with a Waters Alliance HPLC with SQD/PDA detection. Samples were injected onto a Proteomix RP-1000 column ([…], 1000A, 4.6 mm×15 cm, Sepax) at 65° C., and eluted with a 3 min equilibration in 25% B, a 27 min linear gradient from 25%-55% B, a 5 min hold at 55% B, a 1 min change to 90% B, a 5 min hold at 90% B, a 1 min change back to 25% B, and a 5 min reequilibration at 25% B. Mobile phase A was 0.1% TFA in water, and mobile phase B was 0.1% TFA in acetonitrile. The elute was then split (10:1) into PDA and SQD detectors. The SQD detector was set up as ES positive, capillary voltage at 3.2 kV, cone voltage at 40 V, extractor at 3 V, and RF lens at 0.2 V, source temperature at 150° C., and desolvation temperature at 250° C. Mass data was acquired at 200-2000 m/z for 40 min, continuum mode, scan time 1 second. Data was analyzed and deconvoluted offline using MassLynx and MaxEnt1. DAR was calculated using the formula:
# 2[[AUCLC+1+2(AUCLC+2)+3(AUCLC+3)+ . . . n(AUCLC+n)]/[…]]+2[[AUCHC+1+2(AUCHC+2)+3(AUCHC+3)+ . . . n(AUCHC+n)]/ΣAUCHCtot]
# where AUCLC+1 is the area under the curve of the light chain peak conjugated with one cytotoxin, AUCLC+2 is the area under the curve of the light chain peak conjugated with two cytotoxins, etc. AUCHC is the area under the curve of the corresponding heavy chains, and ΣAUCLCtot and ΣAUCHCtot are the combined area under the curve of all unconjugated and conjugated light chains and heavy chains, respectively.
# [2] = Fluorometric free thiol quantitation of partially reduced MORAb-003
# [3] = MORAb-003 10 μM (1.5 mg/ml), TCEP 20 μM, 10 min
# [4] = MORAb-003 10 μM (1.5 mg/ml), TCEP 20 μM, 30 min
# [5] = MORAb-003 10 μM (1.5 mg/ml), TCEP 20 μM, 60 min
# [6] = MORAb-003 10 μM (1.5 mg/ml), TCEP 20 μM, 120 min
# [7] = MORAb-003 10 μM (1.5 mg/ml), TCEP 40 μM, 10 min
# [8] = MORAb-003 10 μM (1.5 mg/ml), TCEP 40 μM, 30 min
# [9] = MORAb-003 10 μM (1.5 mg/ml), TCEP 40 μM, 60 min
# [10] = MORAb-003 10 μM (1.5 mg/ml), TCEP 40 μM, 120 min
# [11] = MORAb-003 35.3 μM (5.3 mg/ml), TCEP 70.6 μM, 10 min
# [12] = MORAb-003 35.3 μM (5.3 mg/ml), TCEP 70.6 μM, 30 min
# [13] = MORAb-003 35.3 μM (5.3 mg/ml), TCEP 70.6 μM, 60 min
# [14] = MORAb-003 35.3 μM (5.3 mg/ml), TCEP 70.6 μM, 120 min
# [15] = MORAb-003 35.3 μM (5.3 mg/ml), TCEP 141.2 μM, 10 min
# [16] = MORAb-003 35.3 μM (5.3 mg/ml), TCEP 141.2 μM, 30 min
# [17] = MORAb-003 35.3 μM (5.3 mg/ml), TCEP 141.2 μM, 60 min
# [18] = MORAb-003 35.3 μM (5.3 mg/ml), TCEP 141.2 μM, 120 min
substance,measurement,setting,value
MORAb-003: humanized anti-human folate receptor alpha antibody (USAN name: farletuzumab),HC (heavy chain biotin level),"[1]; TCEP:mAb 1, TCEP 33.3 μM",0.34
same,LC (light chain biotin level),"[1]; TCEP:mAb 1, TCEP 33.3 μM",0.29
same,HC (heavy chain biotin level),"[1]; TCEP:mAb 2, TCEP 66.7 μM",0.83
same,LC (light chain biotin level),"[1]; TCEP:mAb 2, TCEP 66.7 μM",0.48
same,HC (heavy chain biotin level),"[1]; TCEP:mAb 3, TCEP 100 μM",1.21
same,LC (light chain biotin level),"[1]; TCEP:mAb 3, TCEP 100 μM",0.63
same,HC (heavy chain biotin level),"[1]; TCEP:mAb 4, TCEP 133.2 μM",1.70
same,LC (light chain biotin level),"[1]; TCEP:mAb 4, TCEP 133.2 μM",0.73
same,Disulfide bonds reduced per MAb,[2]; [3],0.7 per MAb
same,Free thiol,[2]; [3],13.3 µM
same,Disulfide bonds reduced per MAb,[2]; [4],0.7 per MAb
same,Free thiol,[2]; [4],14.7 µM
same,Disulfide bonds reduced per MAb,[2]; [5],0.8 per MAb
same,Free thiol,[2]; [5],15.2 µM
same,Disulfide bonds reduced per MAb,[2]; [6],0.7 per MAb
same,Free thiol,[2]; [6],14.6 µM
same,Disulfide bonds reduced per MAb,[2]; [7],1.1 per MAb
same,Free thiol,[2]; [7],21.8 µM
same,Disulfide bonds reduced per MAb,[2]; [8],1.3 per MAb
same,Free thiol,[2]; [8],25.6 µM
same,Disulfide bonds reduced per MAb,[2]; [9],1.3 per MAb
same,Free thiol,[2]; [9],26.9 µM
same,Disulfide bonds reduced per MAb,[2]; [10],1.4 per MAb
same,Free thiol,[2]; [10],27.4 µM
same,Disulfide bonds reduced per MAb,[2]; [11],3.0 per MAb
same,Free thiol,[2]; [11],215 µM
same,Disulfide bonds reduced per MAb,[2]; [12],3.5 per MAb
same,Free thiol,[2]; [12],247.5 µM
same,Disulfide bonds reduced per MAb,[2]; [13],4.2 per MAb
same,Free thiol,[2]; [13],297.6 µM
same,Disulfide bonds reduced per MAb,[2]; [14],3.8 per MAb
same,Free thiol,[2]; [14],266.8 µM
same,Disulfide bonds reduced per MAb,[2]; [15],4.8 per MAb
same,Free thiol,[2]; [15],339 µM
same,Disulfide bonds reduced per MAb,[2]; [16],5.3 per MAb
same,Free thiol,[2]; [16],372.8 µM
same,Disulfide bonds reduced per MAb,[2]; [17],5.4 per MAb
same,Free thiol,[2]; [17],384.2 µM
same,Disulfide bonds reduced per MAb,[2]; [18],6.8 per MAb
same,Free thiol,[2]; [18],479.8 µM
